No constants are given. Whether binding was seen depends on the method and setting. Some results given as binding are weak or reduced against the parent protein; the word gives no strength.
T1: human guanylate-binding protein 1 (GBP1), wild type, farnesylated (human), P32455
T1 chain: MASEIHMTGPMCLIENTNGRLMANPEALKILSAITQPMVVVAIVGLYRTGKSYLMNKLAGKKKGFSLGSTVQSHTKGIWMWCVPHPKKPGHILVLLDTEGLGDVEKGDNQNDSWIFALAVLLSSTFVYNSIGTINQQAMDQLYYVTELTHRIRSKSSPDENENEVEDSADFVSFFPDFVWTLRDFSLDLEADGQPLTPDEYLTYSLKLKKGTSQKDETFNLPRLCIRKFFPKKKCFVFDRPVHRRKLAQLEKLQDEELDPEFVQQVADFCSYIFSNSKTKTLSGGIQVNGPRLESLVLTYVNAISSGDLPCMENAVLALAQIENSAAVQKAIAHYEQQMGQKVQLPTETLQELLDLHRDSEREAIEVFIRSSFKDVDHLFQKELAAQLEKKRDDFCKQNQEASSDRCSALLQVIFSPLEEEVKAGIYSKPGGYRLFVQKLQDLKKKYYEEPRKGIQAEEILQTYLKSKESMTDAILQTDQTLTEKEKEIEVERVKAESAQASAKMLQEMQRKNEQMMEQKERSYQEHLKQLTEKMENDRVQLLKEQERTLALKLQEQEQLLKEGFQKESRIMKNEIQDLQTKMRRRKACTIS


Tests used:
[1] = molecular target: GBP1 M139D, non-farnesylated (human) (UniProt P32455); assay: SEC
[2] = molecular target: T1, human guanylate-binding protein 1 …; assay: negative-stain TEM; conditions: remark: other sources report otherwise
[3] = molecular target: T1, human guanylate-binding protein 1 …; assay: cryo-EM structure; conditions: remark: other sources report otherwise
[4] = molecular target: T1, human guanylate-binding protein 1 …; assay: negative-stain TEM; conditions: remark: other sources report otherwise
[5] = molecular target: T1, human guanylate-binding protein 1 …; assay: sedimentation assay; conditions: remark: other sources report otherwise
[6] = molecular target: T1, human guanylate-binding protein 1 …; assay: sedimentation assay; conditions: remark: other sources report otherwise
[7] = molecular target: T1, human guanylate-binding protein 1 …; assay: light scattering-based polymerization assay; conditions: remark: other sources report otherwise
[8] = molecular target: T1, human guanylate-binding protein 1 …; assay: cross-linking; conditions: remark: other sources report otherwise
[9] = molecular target: T1, human guanylate-binding protein 1 …; assay: light scattering-based polymerization assay; conditions: remark: other sources report otherwise

Molecule	binding [1]	binding [2]	binding [3]	binding [4]	binding [5]	binding [6]	binding [7]	binding [8]	binding [9]
GBP1 M139D, non-farnesylated (from UniProt P32455 1-592)	no binding (tested: 20 µM)	–	–	–	–	–	–	–	–
human guanylate-binding protein 1 (GBP1), wild type, farnesylated, P32455 (natural protein, here or on the partner: farnesyl moiety, C-terminal (CaaX box motif); farnesyl moiety, C-terminal (CaaX box motif)) MASEIHMTGPMCLIENTNGRLMANPEALKILSAITQPMVVVAIVGLYRTGKSYLMNKLAGKKKGFSLGSTVQSHTKGIWMWCVPHPKKPGHILVLLDTEGLGDVEKGDNQNDSWIFALAVLLSSTFVYNSIGTINQQAMDQLYYVTELTHRIRSKSSPDENENEVEDSADFVSFFPDFVWTLRDFSLDLEADGQPLTPDEYLTYSLKLKKGTSQKDETFNLPRLCIRKFFPKKKCFVFDRPVHRRKLAQLEKLQDEELDPEFVQQVADFCSYIFSNSKTKTLSGGIQVNGPRLESLVLTYVNAISSGDLPCMENAVLALAQIENSAAVQKAIAHYEQQMGQKVQLPTETLQELLDLHRDSEREAIEVFIRSSFKDVDHLFQKELAAQLEKKRDDFCKQNQEASSDRCSALLQVIFSPLEEEVKAGIYSKPGGYRLFVQKLQDLKKKYYEEPRKGIQAEEILQTYLKSKESMTDAILQTDQTLTEKEKEIEVERVKAESAQASAKMLQEMQRKNEQMMEQKERSYQEHLKQLTEKMENDRVQLLKEQERTLALKLQEQEQLLKEGFQKESRIMKNEIQDLQTKMRRRKACTIS	–	binds	binds	binds	binds	binds	binds	binds	binds

Reference: article doi:10.1101/2023.08.01.551421 (bioRxiv, 2023)
